PubChem BioAssay AID652243 – Drosophila RNAi Screening Center | 2013
Screen: 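Knock-downs that decrease or increase androgen receptor reporter signal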 (primary screen). System: Drosophila S2R+ cells. Reagent: long dsRNA against Drosophila genes. Time to read-out: 72 h (48 h, then 24 h hormone). Conditions: synthetic androgen R1881 at 10 nM for 24 h. Read-out: 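Firefly light from an androgen-responsive reporter and Renilla control light per well, raw and unnormalised, for each of two replicates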. Scale: firefly reporter light: higher = more light from androgen-responsive reporter; Renilla control light: higher = more constitutive control signal (cell number, transfection). Rule for the call: 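Across duplicate plates, a knock-down whose log firefly/Renilla ratio shifted a set fold down or up from the GFP/LacZ control mean was a hit; the downward cut appears as both 1.5 and 3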. Meaning of the calls: active = hit: reporter lowered or raised; inactive = no hit.
In all, the deposit lists about 24,000 reagents; below is a random part of those that have a named target and a result. Of all reagents, 246 (1%) were called active. 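Plates not normalised; calls are printed but the firefly/Renilla ratio behind them is not deposited; fold cut for lowering reported inconsistently.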 Raw values are not corrected between plates. Reagents against one gene are numbered here. Names joined by + are all predicted targets of the reagent. Not stated in the record: the amount of reagent.

no.	target gene	dsRNA no.	firefly reporter light, replicate 1	firefly reporter light, replicate 2	Renilla control light, replicate 1	Renilla control light, replicate 2	Call
1	RhoGAP5A (GeneID 31473)	1	1.45e5	1.06e5	1.17e6	5.36e5	inactive
2	RhoGAP5A (GeneID 31473)	2	5.62e5	3.75e5	1.39e6	5.23e5	inactive
3	RhoGAP5A (GeneID 31473)	3	1.80e6	1.87e6	2.33e6	1.88e6	inactive
4	CG6701 (GeneID 36550)	1	3.17e5	4.07e5	9.48e5	8.10e5	inactive
5	CG7091 (GeneID 41590)	1	1.29e5	96782	91399	1.39e5	inactive
6	CG7091 (GeneID 41590)	2	77962	83947	1.88e6	1.63e6	inactive
7	mthl6 (GeneID 38839)	1	1.54e5	1.96e5	1.82e6	2.29e6	inactive
8	Lcp65Ag3 + Lcp65Ag2 + Lcp65Ag1	1	1.90e5	2.38e5	2.50e6	2.79e6	inactive
9	Lcp65Ag3 + Lcp65Ag2 + Lcp65Ag1	2	2.27e5	2.85e5	2.61e6	3.90e6	inactive
10	Cyp4ac1 (GeneID 33754)	1	6.29e5	6.86e5	1.65e6	2.44e6	inactive
11	aus (GeneID 42531)	1	1.78e5	95552	63652	3.96e5	inactive
12	aus (GeneID 42531)	2	3.39e5	2.40e5	15253	2.19e5	inactive
13	aus (GeneID 42531)	3	16815	24515	4.44e5	4.09e5	inactive
14	aus (GeneID 42531)	4	2.05e5	1.89e5	8.14e5	7.23e5	inactive
15	ppk31 (GeneID 318575)	1	27299	79190	1.02e5	1.34e5	inactive
16	ppk31 (GeneID 318575)	2	5.93e5	9.62e5	6.99e5	1.04e6	inactive
17	CG1791 (GeneID 31927)	1	1.48e5	1.62e5	8.82e5	1.02e6	inactive
18	CG1791 (GeneID 31927)	2	4.77e5	5.41e5	9.88e5	1.24e6	inactive
19	SLC22A (GeneID 40437)	1	2.55e5	3.09e5	2.68e6	3.37e6	inactive
20	SLC22A (GeneID 40437)	2	3.20e5	2.15e5	2.94e6	2.76e6	inactive
21	CG7916 (GeneID 34800)	1	1.95e5	2.32e5	1.13e6	1.66e6	inactive
22	tsg (GeneID 32160)	1	4.66e5	3.41e5	3.64e6	2.55e6	inactive
23	tsg (GeneID 32160)	2	4.32e5	4.23e5	7.30e5	6.15e5	inactive
24	CG10000 (GeneID 43394)	1	2.79e5	2.46e5	2.07e6	2.96e6	inactive
25	CG10000 (GeneID 43394)	2	9.55e5	4.85e5	1.50e6	9.14e5	inactive

5 entries from above, set out differently:
{"target gene": "ppk31 (GeneID 318575)", "dsRNA no.": 2, "firefly reporter light, replicate 1": 5.93e5, "firefly reporter light, replicate 2": 9.62e5, "Renilla control light, replicate 1": 6.99e5, "Renilla control light, replicate 2": 1.04e6, "Call": "inactive"}
{"target gene": "CG1791 (GeneID 31927)", "dsRNA no.": 1, "firefly reporter light, replicate 1": 1.48e5, "firefly reporter light, replicate 2": 1.62e5, "Renilla control light, replicate 1": 8.82e5, "Renilla control light, replicate 2": 1.02e6, "Call": "inactive"}
{"target gene": "CG1791 (GeneID 31927)", "dsRNA no.": 2, "firefly reporter light, replicate 1": 4.77e5, "firefly reporter light, replicate 2": 5.41e5, "Renilla control light, replicate 1": 9.88e5, "Renilla control light, replicate 2": 1.24e6, "Call": "inactive"}
{"target gene": "SLC22A (GeneID 40437)", "dsRNA no.": 1, "firefly reporter light, replicate 1": 2.55e5, "firefly reporter light, replicate 2": 3.09e5, "Renilla control light, replicate 1": 2.68e6, "Renilla control light, replicate 2": 3.37e6, "Call": "inactive"}
{"target gene": "SLC22A (GeneID 40437)", "dsRNA no.": 2, "firefly reporter light, replicate 1": 3.20e5, "firefly reporter light, replicate 2": 2.15e5, "Renilla control light, replicate 1": 2.94e6, "Renilla control light, replicate 2": 2.76e6, "Call": "inactive"}

Further records:
no.	target gene	dsRNA no.	firefly reporter light, replicate 1	firefly reporter light, replicate 2	Renilla control light, replicate 1	Renilla control light, replicate 2	Call
26	Cad99C (GeneID 43528)	1	1.58e5	1.45e5	2.34e6	2.53e6	inactive
27	Cad99C (GeneID 43528)	2	84094	85689	1.04e6	7.00e5	inactive
28	Lectin-galC1 (GeneID 35216)	1	1.22e5	1.38e5	1.26e6	1.79e6	inactive
29	Skp2 (GeneID 40548)	1	19194	31499	3.03e5	2.31e5	inactive
30	Skp2 (GeneID 40548)	2	4.91e5	4.67e5	1.82e6	1.61e6	inactive
31	CG11854 (GeneID 43037)	1	2.51e5	2.54e5	2.37e6	1.97e6	inactive
32	mago (GeneID 37402)	1	2.40e5	1.51e5	1.82e6	1.28e6	inactive
33	OS9 (GeneID 59167)	1	71111	1.04e5	1.06e6	1.03e6	inactive
34	OS9 (GeneID 59167)	2	3.88e5	4.14e5	8.67e5	9.29e5	inactive
35	Cdc6 (GeneID 38989)	1	7.17e5	9.13e5	8.10e5	1.39e6	inactive
36	Ggamma30A + borr	1	6.42e5	6.84e5	9.90e5	1.06e6	inactive
37	CG31636 (GeneID 318865)	1	2.05e5	1.98e5	1.57e6	1.37e6	inactive
38	CG31636 (GeneID 318865)	2	6.65e5	7.72e5	1.27e6	1.30e6	inactive
39	CG33704 (GeneID 3772359)	1	8.18e5	7.01e5	1.85e6	1.17e6	inactive
40	Cat (GeneID 40048)	1	2.52e5	2.19e5	1.82e6	2.16e6	inactive
41	Cat (GeneID 40048)	2	9.24e5	8.86e5	9.50e5	7.53e5	inactive
42	Cat (GeneID 40048)	3	1.11e6	1.01e6	1.69e6	1.86e6	inactive
